Measured values as given in article PMC7346168.

B1: Plastidial pyruvate kinase 2 (protein, UniProt Q9FLW9 64-579)
chain: SARVETEVIPVSPEDVPNREEQLERLLEMQQFGDTSVGMWSKPTVRRKTKIVCTVGPSTNTREMIWKLAEAGMNVARMNMSHGDHASHKKVIDLVKEYNAQTKDNTIAIMLDTKGPEVRSGDLPQPIMLDPGQEFTFTIERGVSTPSCVSVNYDDFVNDVEAGDMLLVDGGMMSFMVKSKTKDSVKCEVVDGGELKSRRHLNVRGKSATLPSITEKDWEDIKFGVENKVDFYAVSFVKDAQVVHELKKYLQNSGADIHVIVKIESADSIPNLHSIITASDGAMVARGDLGAELPIEEVPILQEEIINLCRSMGKAVIVATNMLESMIVHPTPTRAEVSDIAIAVREGADAVMLSGETAHGKFPLKAAGVMHTVALRTEATITSGEMPPNLGQAFKNHMSEMFAYHATMMSNTLGTSTVVFTRTGFMAILLSHYRPSGTIYAFTNEKKIQQRLALYQGVCPIYMEFTDDAEETFANALATLLKQGMVKKGEEIAIVQSGTQPIWRSQSTHNIQVRKV
B2: Peroxiredoxin Q (protein, UniProt Q9LU86 68-216)
chain: KVNKGQAAPDFTLKDQNGKPVSLKKYKGKPVVLYFYPADETPGCTKQACAFRDSYEKFKKAGAEVIGISGDDSASHKAFASKYKLPYTLLSDEGNKVRKDWGVPGDLFGALPGRQTYVLDKNGVVQLIYNNQFQPEKHIDETLKFLKAA
B3: Bifunctional protein FolD 2 (protein, UniProt Q9LHH7 1-299)
chain: MASSSDHTAKIIDGKAIAHTIRSEIAEEVRGLSEKHGKVPGLAVVIVGSRKDSQTYVNTKRKACAEVGIKSFDVGLPEEVSEADLISKVHELNSNPDVHGILVQLPLPKHINEEHILGAISIDKDVDGFHPLNIGKLAMKGREPLFLPCTPKGCLELLARSGVKIKGQRAVVVGRSNIVGLPVSLLLLKADATVTTVHSHTKDPEAIIREADIVIAACGQAHMIKGNWIKPGAAVIDVGTNAVSDPSKKSGYRLVGDVDFAEASKVAGFITPVPGGVGPMTVAMLLRNTVDGAKRVFGE
B4: Soluble pyrophosphatase 6 (protein, UniProt Q9LXC9 67-300)
chain: VQEEGPAESLDYRVFFLDGSGKKVSPWHDIPLTLGDGVFNFIVEIPKESKAKMEVATDEDFTPIKQDTKKGKLRYYPYNINWNYGLLPQTWEDPSHANSEVEGCFGDNDPVDVVEIGETQRKIGDILKIKPLAALAMIDEGELDWKIVAISLDDPKAHLVNDVEDVEKHFPGTLTAIRDWFRDYKIPDGKPANRFGLGDKPANKDYALKIIQETNESWAKLVKRSVDAGDLSLY
B5: Myrosinase 2 (protein, UniProt Q9C5C2 29-547)
chain: KPEEEITCEENVPFTCSQTDRFNKQDFESDFIFGVASSAYQIEGGRGRGLNVWDGFTHRYPEKGGADLGNGDTTCDSYRTWQKDLDVMEELGVKGYRFSFAWSRILPKGKRSRGINEDGINYYSGLIDGLIARNITPFVTLFHWDLPQSLQDEYEGFLDRTIIDDFKDYADLCFERFGDRVKHWITINQLFTVPTRGYALGTDAPGRCSQWVDKRCYGGDSSTEPYIVAHNQLLAHATVVDLYRTRYKYQGGKIGPVMITRWFLPYDDTLESKQATWRAKEFFLGWFMEPLTKGKYPYIMRKLVGNRLPKFNSTEARLLKGSYDFLGLNYYVTQYAHALDPSPPEKLTAMTDSLANLTSLDANGQPPGPPFSKGSYYHPRGMLNVMEHFKTKYGDPLIYVTENGFSTSGGPIPFTEAFHDYNRIDYLCSHLCFLRKAIKEKRVNVKGYFVWSLGDNYEFCNGYTVRFGLSYVDFNNVTADRDLKASGLWYQSFLRDTTKNQDILRSSLPFKNGDRKSLT
B6: Arginase 2 (protein, UniProt Q9ZPF5 27-344)
chain: PTSLVETGQNRVIDASLTLIRERAKLKGELVRLIGGAKATTALLGVPLGHNSSFLEGPALAPPHVREAIWCGSTNSTTEEGKELKDPRVLSDVGDIPVQEIREMGVDDDRLMKVVSESVKLVMEEEPLRPLVIGGDHSISYPVVRAVSEKLGGPVDILHLDAHPDIYDRFEGNYYSHASSFARIMEGGYARRLLQVGIRSINKEGREQGKRFGVEQYEMRTFSKDRQMLENLKLGEGVKGVYISIDVDCLDPGFAHGVSHFEPGGLSFRDVLNILHNLQGDLVGADVVEYNPQRDTADDMTAMVAAKFVRELAAKMSK
B7: Protein COLD-REGULATED 15B (protein, UniProt Q9SIN5 42-141)
chain: AQRKKSLIYAVKSDGNILDDLNEATKKASDFVTDKTKEALADGEKTKDYIVEKTIEANETATEEAKKALDYVTEKGKEAGNKAAEFVEGKAEEAKNATKS
B8: Biotin carboxylase (protein, UniProt O04983 72-537)
chain: SGGDKILVANRGEIAVRVIRTAHEMGIPCVAVYSTIDKDALHVKLADEAVCIGEAPSNQSYLVIPNVLSAAISRGCTMLHPGYGFLSENALFVEMCRDHGINFIGPNPDSIRVMGDKATARETMKNAGVPTVPGSDGLLQSTEEAVRVANEIGFPVMIKATAGGGGRGMRLAKEPGEFVKLLQQAKSEAAAAFGNDGCYLEKFVQNPRHIEFQVLADKFGNVVHFGERDCSIQRRNQKLLEEAPSPALTAELRKAMGDAAVAAAASIGYIGVGTVEFLLDERGSFYFMEMNTRIQVEHPVTEMIYSVDLIEEQIRVAMGEKLRYKQEDIVLRGHSIECRINAEDPFKGFRPGPGRITSYLPSGGPFVRMDSHVYSDYVVPPSYDSLLGKLIVWAPTREKAIERMKRALNDTIITGVPTTINYHKLILDVEDFKNGKVDTAFIVKHEEELAEPQEIVAVKDLTNATV
B9: 30S ribosomal protein S6 alpha (protein, UniProt Q8VY91 60-207)
chain: DFSGTFFEGGFGSDDDPTSPSGSGVSTALEDKPEPQCPPGLRQYETMAVLRPDMSEDERLGLTQKYEELLVAGGGMYVEVFNRGVIPLAYSIRKKNKAGETNTYLDGIYLLFTYFTKPESIVPLETVLTADDDIIRSSSFKIKKRKYN
B10: Glutathione S-transferase F8 (protein, UniProt Q96266 50-263)
chain: ASIKVHGVPMSTATMRVLATLYEKDLQFELIPVDMRAGAHKQEAHLALNPFGQIPALEDGDLTLFESRAITQYLAEEYSEKGEKLISQDCKKVKATTNVWLQVEGQQFDPNASKLAFERVFKGMFGMTTDPAAVQELEGKLQKVLDVYEARLAKSEFLAGDSFTLADLHHLPAIHYLLGTDSKVLFDSRPKVSEWIKKISARPAWAKVIDLQKQ
B11: Protease Do-like 1 (protein, UniProt O22609 106-439)
chain: FVVSTPKKLQTDELATVRLFQENTPSVVYITNLAVRQDAFTLDVLEVPQGSGSGFVWDKQGHIVTNYHVIRGASDLRVTLADQTTFDAKVVGFDQDKDVAVLRIDAPKNKLRPIPVGVSADLLVGQKVFAIGNPFGLDHTLTTGVISGLRREISSAATGRPIQDVIQTDAAINPGNSGGPLLDSSGTLIGINTAIYSPSGASSGVGFSIPVDTVGGIVDQLVRFGKVTRPILGIKFAPDQSVEQLGVSGVLVLDAPPSGPAGKAGLQSTKRDGYGRLVLGDIITSVNGTKVSNGSDLYRILDQCKVGDEVTVEVLRGDHKEKISVTLEPKPDES
B12: Protein MET1 (protein, UniProt Q94BS2 74-335)
chain: AEAGGDGEEEEKYETYEIEVEQPYGLKFRKGRDGGTYIDAILPGGSADKTGKFTVGDRVIATSAVFGTEIWPAAEYGRTMYTIRQRIGPLLMQMEKRNGKAEDTGELTEKEIIRAERNAGYISSRLREIQMQNYLKKKEQKAQREKDLREGLQFSKNGKYEEALERFESVLGSKPTPEEASVASYNVACCYSKLNQVQAGLSALEEALKSGYEDFKRIRSDPDLETLRKSKDFDPLLKQFDESFINESAINAIKSLFGFNKK
B13: GDSL esterase/lipase ESM1 (protein, UniProt Q9LJG3 29-392)
chain: GEGVPNVALFTFGDSYYDAGNKVFLSQRKDLPQTYWPYGKSRDYPNGKFSDGHIVPDFIADFISIPNGVLPPVLKPGVDISRGVSFAVADASILGAPVESMTLNQQVVKFKNMKSNWNDSYIEKSLFMIYIGTEDYLNFTKANPNADASAQQAFVTNVINRLKNDIKLLYSLGASKFVVQLLAPLGCLPIVRQEYKTGNECYELLNDLAKQHNGKIGPMLNEFAKISTSPYGFQFTVFDFYNAVLRRIATGRSLNYRFFVTNTSCCGVGTHNAYGCGKGNVHSKLCEYQRSYFFFDGRHNTEKAQEEMAHLLYGADPDVVQPMTVRELIVYPTGETMREYWEPNNLAIRRRPSRDFYLGLAAYY
B14: Ferredoxin--NADP reductase (AT1G20020) (protein, UniProt Q8W493 58-369)
chain: ITTETDTPTPAKKVEKVSKKNEEGVIVNRYRPKEPYTGKCLLNTKITADDAPGETWHMVFSHQGEIPYREGQSVGVIADGIDKNGKPHKVRLYSIASSALGDLGNSETVSLCVKRLVYTNDQGETVKGVCSNFLCDLAPGSDVKLTGPVGKEMLMPKDPNATVIMLATGTGIAPFRSFLWKMFFEKHDDYKFNGLAWLFLGVPTTSSLLYQEEFDKMKAKAPENFRVDYAISREQANDKGEKMYIQTRMAQYAAELWELLKKDNTFVYMCGLKGMEKGIDDIMVSLAANDGIDWFDYKKQLKKAEQWNVEVY
B15: Protein COLD-REGULATED 15A (protein, UniProt Q42512 41-139)
chain: SQRKKSLIYAAKGDGNILDDLNEATKKASDFVTDKTKEALADGEKAKDYVVEKNSETADTLGKEAEKAAAYVEEKGKEAANKAAEFAEGKAGEAKDATK
B16: BCCP of acetyl-CoA carboxylase 1 (protein, UniProt Q42533 83-280)
chain: SAEGKEKNSLKESSASSPELATEESISEFLTQVTTLVKLVDSRDIVELQLKQLDCELVIRKKEALPQPQAPASYVMMQQPNQPSYAQQMAPPAAPAAAAPAPSTPASLPPPSPPTPAKSSLPTVKSPMAGTFYRSPAPGEPPFIKVGDKVQKGQVLCIVEAMKLMNEIESDHTGTVVDIVAEDGKPVSLDTPLFVVQP

Molecular target: T1, 2-CysPRXA C54D (pseudo-hyperoxidized variant) (Arabidopsis) (UniProt Q96291)
T1 sequence: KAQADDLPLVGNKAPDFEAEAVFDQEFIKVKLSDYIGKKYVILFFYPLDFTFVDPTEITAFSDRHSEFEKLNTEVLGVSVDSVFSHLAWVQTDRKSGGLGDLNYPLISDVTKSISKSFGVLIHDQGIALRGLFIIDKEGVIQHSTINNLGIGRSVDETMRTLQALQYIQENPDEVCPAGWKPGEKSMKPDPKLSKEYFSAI
Experiment: affinity purification with mass spectrometry; oxidizing: his6-tagged 2-CysPRXA variant (3 mg) on Ni-NTA-agarose pretreated with 1 mM H2O2; leaf extract (50 mg protein) made with 1 mM H2O2; 50 mM HEPES pH 8.0, 1 h, 4 °C; stepwise elution with 1 M NaCl, 10 mM DTT, 250 mM imidazole; hits not found on the column without 2-CysPRX; only the target purified

binding, binds:
B1, B2, B3

Molecular target: T2, 2-CysPRXA C54S (pseudo-reduced variant) (Arabidopsis) (UniProt Q96291)
T2 sequence: T1 sequence with D54S
Experiment: affinity purification with mass spectrometry; reducing: his6-tagged 2-CysPRXA variant (3 mg) on Ni-NTA-agarose pretreated with 10 mM DTT; leaf extract (50 mg protein) made with 10 mM DTT; 50 mM HEPES pH 8.0, 1 h, 4 °C; stepwise elution with 1 M NaCl, 10 mM DTT, 250 mM imidazole; hits not found on the column without 2-CysPRX; only the target purified

binding, binds:
B4, B5, B6, B7, B8, B9, B10, B11, B12, B13, B14, B15, B16

Residue numbers refer to the chain shown, from its start. These are yes or no findings as the source states them, for the method shown. In cells and extracts the contact can be indirect. A yes stands for co-enrichment or nearness to the bait. Other partners may have been found.
